This passage reports Plasma concentration results from paper PMC8632988, “Inhibition of SYK and cSrc kinases can protect bone and cartilage in preclinical models of osteoarthritis and rheumatoid arthritis” (Scientific Reports, 2021).

Where “and” joins values, the source holds several entries; their conditions need not be identical. Identical values can stand only once. The source gives many values for each of these; only a part stands here.

A short description of this data set: Pharmacokinetics after single oral administration to rats. The format is in vivo, rat. The settings on record: male Wistar rats. Here is the method:
Experiments were performed at ChemPartner, Shanghai, China and approved by Institutional Ethics Committee (IEC) of ChemPartner. Male Wistar 10–12 weeks old rats with body weights of 185–220 g and male New Zealand rabbits with body weights of 2.0–2.3 kg were purchased from Shanghai SLAC Laboratory Animal Co., Ltd. MT-SYK-03 was administered to the three groups of rats (six rats per group) via oral gavage at 10 mL/kg concentration, and in rabbits 5 mL/kg concentration. Blood samples were kept on ice and centrifuged (2000 g, 4 ℃, 5 min) within 15 min post sampling.

Turning to `COc1cc(Nc2ncnc(Nc3cc4c(cn3)NC(=O)C(C)(C)O4)n2)cc(OC)c1OC` [MT-SYK-03], the Plasma concentration is, setting by setting: (Table S7, 100 mg/kg PO, 0.25 h, individual Rat#7-12) 401 ng/mL and 436 ng/mL and 404 ng/mL and 463 ng/mL and 388 ng/mL; (Table S7, 100 mg/kg PO, 0.5 h, individual Rat#7-12) 654 ng/mL and 612 ng/mL and 677 ng/mL and 709 ng/mL and 707 ng/mL; (Table S7, 100 mg/kg PO, 1 h, individual Rat#7-12) 1060 ng/mL and 760 ng/mL and 879 ng/mL and 883 ng/mL and 805 ng/mL; (Table S7, 100 mg/kg PO, 2 h, individual Rat#7-12) 687 ng/mL and 576 ng/mL and 603 ng/mL and 618 ng/mL and 608 ng/mL; (Table S7, 100 mg/kg PO, 4 h, individual Rat#7-12) 327 ng/mL and 399 ng/mL and 254 ng/mL and 397 ng/mL and 533 ng/mL and 391 ng/mL; (Table S7, 100 mg/kg PO, 24 h, individual Rat#7-12) 1.54 ng/mL. Moreover, the Plasma concentration was 1.74 ng/mL and 0.932 ng/mL and 2.71 ng/mL (Table S7, 100 mg/kg PO, 48 h, individual Rat#7-12); 521 ng/mL and 371 ng/mL and 446 ng/mL and 365 ng/mL and 355 ng/mL (Table S8, 200 mg/kg PO, 0.25 h, individual Rat#13-18); 1010 ng/mL and 1030 ng/mL and 881 ng/mL and 767 ng/mL and 804 ng/mL (Table S8, 200 mg/kg PO, 0.5 h, individual Rat#13-18); 1430 ng/mL and 1360 ng/mL and 1370 ng/mL and 998 ng/mL and 1170 ng/mL (Table S8, 200 mg/kg PO, 1 h, individual Rat#13-18); 924 ng/mL and 1210 ng/mL and 863 ng/mL and 728 ng/mL and 1320 ng/mL (Table S8, 200 mg/kg PO, 2 h, individual Rat#13-18); 840 ng/mL and 470 ng/mL and 681 ng/mL and 692 ng/mL and 693 ng/mL and 972 ng/mL (Table S8, 200 mg/kg PO, 4 h, individual Rat#13-18). The Plasma concentration was 190 ng/mL and 163 ng/mL and 146 ng/mL and 225 ng/mL and 151 ng/mL and 358 ng/mL (Table S8, 200 mg/kg PO, 8 h, individual Rat#13-18); 4.40 ng/mL and 1.85 ng/mL and 2.41 ng/mL and 2.18 ng/mL and 2.62 ng/mL and 16.5 ng/mL (Table S8, 200 mg/kg PO, 24 h, individual Rat#13-18); 1.82 ng/mL and 0.916 ng/mL and 17.9 ng/mL and 1.14 ng/mL (Table S8, 200 mg/kg PO, 48 h, individual Rat#13-18).
